PubChem BioAssay AID1159591, NIAID – 2016

Aim: 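Effects of TLR pathway gene knock-down on R848-induced Tnf reporter in macrophages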
Cells: mouse RAW264.7 G9 macrophage reporter clone (GFP-p65, Tnf promoter-mCherry)
Knock-down reagent: single siRNA against mouse genes
Timing: cells assayed 48 to 72 hours after siRNA transfection; R848 for 16 hours before fixing
Conditions: R848 (TLR7/8 agonist) for 16 hours before fixation; dose not given
Measured: 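mCherry Tnf promoter reporter in nuclei imaged after 16 hours of R848, background removed, robust z relative to non-targeting controls using plate median and MAD, replicate average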
Direction: mean Tnf reporter z-score: higher = stronger Tnf promoter reporter signal than controls
Hit rule: 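Absolute z above 1, 1.5, 2 or 2.5 scores 25 up to 100; no stated active threshold; in practice calls fall at roughly z ≤ -1.5 or z ≥ 1.5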
Calls: active = reporter clearly up or down; inactive = little reporter change
Here is a random part of 756 deposited reagents. 130 of them (17%) were called active. 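Active calls include both lower and higher Tnf reporter signal.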 Unmarked entries are inactive. Reagents against one gene are numbered here. Not stated in the record: the amount of reagent.

The opening 2 entries as a preview:
Gene	reagent no.	mean Tnf reporter z-score
Jun	1	0.193
Jun	2	-1.78 (active)

The list itself, repeating the preview:
Gene	reagent no.	mean Tnf reporter z-score
Jun	1	0.193
Jun	2	-1.78 (active)
Jun	3	-0.139
Jun	4	-1.27
Jun	5	-0.821
Jun	6	0.155
Tab3	1	-0.849
Tab3	2	-0.6
Tab3	3	-0.891
Tab3	4	1.27
Tab3	5	-0.87
Tab3	6	-0.661
